Our source for the binding values is PMC6907760.

Amino acid sequences for entries named in this document (tags omitted). A change or cut given only in a name is not applied to a line headed by its entry.
UniProt Q384V7: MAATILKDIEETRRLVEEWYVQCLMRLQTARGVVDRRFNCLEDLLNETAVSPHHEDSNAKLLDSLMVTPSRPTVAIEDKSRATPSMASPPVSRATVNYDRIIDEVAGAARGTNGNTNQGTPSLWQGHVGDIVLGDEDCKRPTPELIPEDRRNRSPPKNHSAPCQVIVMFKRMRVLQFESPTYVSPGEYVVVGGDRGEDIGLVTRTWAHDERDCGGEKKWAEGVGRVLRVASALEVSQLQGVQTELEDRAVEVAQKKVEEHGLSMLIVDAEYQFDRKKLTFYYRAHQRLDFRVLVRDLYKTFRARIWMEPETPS
UniProt Q389Y5: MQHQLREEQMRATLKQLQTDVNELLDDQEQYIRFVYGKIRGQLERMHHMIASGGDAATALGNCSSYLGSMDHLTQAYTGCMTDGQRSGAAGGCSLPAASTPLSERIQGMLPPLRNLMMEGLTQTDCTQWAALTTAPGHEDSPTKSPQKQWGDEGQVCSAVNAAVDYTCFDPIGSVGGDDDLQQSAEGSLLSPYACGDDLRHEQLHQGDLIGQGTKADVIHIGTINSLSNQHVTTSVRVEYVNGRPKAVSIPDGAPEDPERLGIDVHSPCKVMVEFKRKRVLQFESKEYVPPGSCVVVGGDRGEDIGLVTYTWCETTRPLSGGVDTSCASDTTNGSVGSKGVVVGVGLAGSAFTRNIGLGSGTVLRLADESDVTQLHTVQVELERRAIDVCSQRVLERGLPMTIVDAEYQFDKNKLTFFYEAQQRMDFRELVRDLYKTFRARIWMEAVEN

These are yes or no findings as the source states them, for the method shown. Binding seen in cells or lysates may run through a third protein. Here binding means that the protein was enriched with, or labelled near, the bait; the list need not be complete.

In this assay the target is HA-TbCSBPII-33 (Trypanosoma brucei) (UniProt Q384V7). As to the kind of experiment: affinity purification with mass spectrometry; anti-HA magnetic beads, cleared lysate of SILAC labelled procyclic T. brucei with the HA-tagged bait against the parental untagged line; 50 mM Tris pH 7.6, 150 mM NaCl, 10% glycerol, 0.1% NP-40, 3 h at 4 °C; eluted with HA peptide; biological replicates with label swap.

Take PCD4 (from UniProt Q389Y5): the binding entry is “binds”.
